Laboratory results taken from PMC7481185.
These are yes or no findings as the source states them, for the method shown. Binding seen in cells or lysates may run through a third protein. Some binding calls cover weakened binding; strength is not graded here.

Amino acid sequences for entries named in this document (tags omitted).
UniProt P25696: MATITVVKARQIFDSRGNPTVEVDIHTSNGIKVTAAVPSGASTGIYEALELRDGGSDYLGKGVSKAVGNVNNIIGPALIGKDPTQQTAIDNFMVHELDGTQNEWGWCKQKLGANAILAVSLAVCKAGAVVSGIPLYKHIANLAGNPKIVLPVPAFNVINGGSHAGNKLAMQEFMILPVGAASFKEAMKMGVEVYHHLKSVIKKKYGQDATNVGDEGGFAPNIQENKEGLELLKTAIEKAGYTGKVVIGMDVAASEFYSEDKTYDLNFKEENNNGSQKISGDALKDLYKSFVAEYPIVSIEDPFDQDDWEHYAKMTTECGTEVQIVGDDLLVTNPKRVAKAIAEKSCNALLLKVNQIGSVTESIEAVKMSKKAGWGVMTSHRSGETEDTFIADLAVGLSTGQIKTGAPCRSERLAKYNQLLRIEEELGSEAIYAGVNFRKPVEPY

Target: enolase fluorescent fusion (FLIM-FRET) (Arabidopsis thaliana) (UniProt P25696)
Test: FRET or BRET; FLIM-FRET; mCitrine donor and mCherry acceptor fusions constitutively expressed in plant cell culture; enolase-mCitrine with free mCherry as negative control

enolase fluorescent fusion (FLIM-FRET) (from UniProt P25696 1-444) (enzyme)
binding: binds
